These are yes or no findings as the source states them, for the method shown. In cells and extracts the contact can be indirect. Some entries that bind do so weakly or less than the wild type.
Biological target: β1 integrin (human) (UniProt P05556)
Test: co-immunoprecipitation from HCC lysates with a β1 antibody, Western blot for αv

By UniProt entry, the sequences of proteins in these tests, tags left out. Residues count along the entry.
UniProt P05556: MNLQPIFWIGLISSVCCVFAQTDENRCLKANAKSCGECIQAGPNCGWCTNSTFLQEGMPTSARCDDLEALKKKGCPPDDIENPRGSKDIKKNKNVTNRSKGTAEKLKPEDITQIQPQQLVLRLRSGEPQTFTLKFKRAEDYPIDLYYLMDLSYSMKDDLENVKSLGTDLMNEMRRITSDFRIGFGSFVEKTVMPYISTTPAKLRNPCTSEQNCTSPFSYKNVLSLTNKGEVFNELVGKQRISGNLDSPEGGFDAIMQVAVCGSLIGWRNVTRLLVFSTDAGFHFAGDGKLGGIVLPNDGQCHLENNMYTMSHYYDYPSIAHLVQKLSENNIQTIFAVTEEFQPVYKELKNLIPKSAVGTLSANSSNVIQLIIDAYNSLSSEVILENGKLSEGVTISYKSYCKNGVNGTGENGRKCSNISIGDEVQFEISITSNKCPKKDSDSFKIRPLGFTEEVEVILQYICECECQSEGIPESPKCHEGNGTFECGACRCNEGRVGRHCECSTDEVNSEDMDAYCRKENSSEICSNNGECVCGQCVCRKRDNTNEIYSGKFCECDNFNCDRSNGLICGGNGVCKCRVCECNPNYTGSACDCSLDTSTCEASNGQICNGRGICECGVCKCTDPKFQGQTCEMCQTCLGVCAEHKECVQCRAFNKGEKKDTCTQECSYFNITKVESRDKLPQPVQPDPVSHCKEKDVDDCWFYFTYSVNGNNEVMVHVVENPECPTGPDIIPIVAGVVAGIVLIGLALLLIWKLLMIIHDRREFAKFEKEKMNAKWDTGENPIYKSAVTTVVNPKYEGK
UniProt P06756, residues 31-1048: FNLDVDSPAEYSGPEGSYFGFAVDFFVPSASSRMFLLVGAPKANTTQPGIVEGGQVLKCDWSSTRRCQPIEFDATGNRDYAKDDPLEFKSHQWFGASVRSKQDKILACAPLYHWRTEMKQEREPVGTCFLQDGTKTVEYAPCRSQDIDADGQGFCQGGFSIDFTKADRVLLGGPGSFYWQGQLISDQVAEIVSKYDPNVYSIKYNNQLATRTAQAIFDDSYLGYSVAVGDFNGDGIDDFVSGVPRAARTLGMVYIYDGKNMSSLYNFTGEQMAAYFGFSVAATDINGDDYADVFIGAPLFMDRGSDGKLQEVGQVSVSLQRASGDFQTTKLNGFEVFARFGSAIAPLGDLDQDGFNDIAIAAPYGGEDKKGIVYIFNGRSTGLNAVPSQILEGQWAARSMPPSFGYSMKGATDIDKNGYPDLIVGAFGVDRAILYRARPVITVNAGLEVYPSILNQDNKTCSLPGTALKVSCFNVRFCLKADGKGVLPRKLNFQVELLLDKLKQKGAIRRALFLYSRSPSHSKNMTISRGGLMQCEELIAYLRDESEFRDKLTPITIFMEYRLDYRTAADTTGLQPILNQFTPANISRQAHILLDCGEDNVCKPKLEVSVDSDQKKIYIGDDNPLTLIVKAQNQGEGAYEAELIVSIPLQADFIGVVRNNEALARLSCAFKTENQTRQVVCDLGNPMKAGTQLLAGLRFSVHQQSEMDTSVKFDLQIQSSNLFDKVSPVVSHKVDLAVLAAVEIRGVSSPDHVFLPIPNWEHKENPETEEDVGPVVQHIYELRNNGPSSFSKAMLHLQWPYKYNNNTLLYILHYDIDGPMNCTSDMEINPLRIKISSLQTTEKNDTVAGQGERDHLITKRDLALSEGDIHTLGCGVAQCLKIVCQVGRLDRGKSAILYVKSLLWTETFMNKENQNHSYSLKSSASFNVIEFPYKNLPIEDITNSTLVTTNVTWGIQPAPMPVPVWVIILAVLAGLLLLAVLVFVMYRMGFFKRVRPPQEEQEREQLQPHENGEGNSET

For “αv integrin (from UniProt P06756 31-1048) (receptor)”, which binding is on record?
Its binding is “binds”.
